These results are taken from patent US8980819B2, “4(3)-(4-hydroxy-4-methylpentyl)-3-cyclohexene-1-carbonitrile” (Kao Corporation, priority 2013, dated 2015).

For series [1] the following is noted: from Non-Patent Documents 1, 2 and Patent Document 1; cited from earlier work.
Series [2] can be described thus: Odor evaluation by smelling strip method (single compounds). As to conditions: for Odor Intensity: relative evaluation, 0 denoting odorless and 5 denoting very strong, rounded to nearest whole number; for Main Odor: smelling strip method, expert panel, fragrances sensed mainly.

In the case of “4(3)-(4-methyl-3-pentenyl)-3-cyclohexene-1-carbonitrile [Azuril]”, in series [1], the “Odor (known)” value is recorded as “citrus-like odor”.

As for “3-cyano-3-methyl- and 4-cyano-4-methyl-1-(4-methyl-3-pentenyl)cyclohexane”, the “Odor (known)” value in series [1] is “soft, floral odor”.

For the molecule “4(3)-(4-hydroxy-4-methylpentyl)-3-cyclohexene-1-carboxaldehyde oxime [Production Example 1]”, in series [2], the “Odor Intensity” value was found to be 1 and the “Main Odor” value is “Floral (Lily)”.

As for “4(3)-(4-hydroxy-4-methylpentyl)-3-cyclohexene-1-carboxaldehyde [Lyral]”, the “Odor (known)” value in series [1] is “lily of the valley like odor similar to hydroxycitronellal”.

On to `N#CC(=C1CCCCC1)c1ccccc1` [Peonile, 2-cyclohexylidene-2-phenylacetonitrile], for which the “Odor (known)” value in series [1] was “fresh, grapefruit, geranium, rose floral-like odor”.

In the case of “4(3)-(4-hydroxy-4-methylpentyl)-3-cyclohexene-1-carbonitrile [Example 1]”, in series [2], the “Odor Intensity” value came to 3 and the “Main Odor” value is recorded as “Floral (Muguet)”.
